# Out of some 320,000 compounds screened, about 22,000 (6.9%) were called active. Inconclusive results, whose numbers are uncertain, are shown with a selection of clear calls. Calls come from the whole dose curve; as a rule, active = well fitted inhibition curve with a large enough effect; inconclusive = small, poorly fitted or top-dose-only effect, or another doubt; inactive = no such curve, though single readings can be large or run the other way. A potency beside an inconclusive call is a rough fit, not a confirmed value.
# Assay: Primary qHTS for delayed death inhibitors of the malarial parasite plastid, 96 hour incubation
# Conditions: P. falciparum luciferase reporter growth; series mostly up to 28.7 µM; activity change, negative = inhibition: at the top concentration
# Method in brief: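 Readout is luminescence from an integrated firefly luciferase in P. falciparum. Red cells, 2% hematocrit and 0.05% parasitemia final, were cultured with compound through two parasite generations (96 hours) at 37 C, 5% CO2.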
# % is set by controls: 0 for no effect and ±100 for the full control effect; potency is the fitted concentration of half-maximal effect.
Structure (SMILES),Potency,"activity change, negative = inhibition"
Cc1ccc(NC(=O)CN(C)C2CCCCC2)cc1Br,"inconclusive: 10.4 µM [inhibitor, single point]",–
CC(C)C(=O)NC(c1ccco1)c1c(O)ccc2ccccc12 (stereo not drawn),"inconclusive: 5.86 µM [inhibitor, partial curve]",–
O=S(=O)(c1ccc(NC(=S)N/N=C/c2c3ccccc3cc3ccccc23)cc1)N1CCOCC1,"inconclusive: 2.08 µM [inhibitor, partial curve]",–
O=Cc1ccc(OC(=O)Cc2ccc(F)cc2)cc1,–,inactive: 2.65%
CC1CCc2c(sc3ncn(CC(=O)N4CCCCC4)c(=O)c23)C1 (stereo not drawn),–,inactive: -29.4%
CCn1c(=NC(=O)c2ccc(S(=O)(=O)N3CCOCC3)cc2)sc2cccc(OC)c21,"inconclusive: 8.28 µM [inhibitor, partial curve]",–
COc1ccc(S(=O)(=O)N2CCN(c3ccccc3OC)CC2)cc1,"inconclusive: 18.5 µM [inhibitor, single point]",–
CC(NC(=O)Nc1ccc(Cl)cc1)C(c1cccs1)N1CCOCC1 (stereo not drawn),"inconclusive: 10.4 µM [inhibitor, single point]",–
CSc1nc2ccccc2n1CC(=O)Nc1c(C)cccc1C,active: 7.38 µM,–
COc1ccc(OC)c(NC(=O)CCOc2cccc(C)c2)c1,–,inactive: 1.09%
COc1ccc(CCNC(=O)C(=O)NCC2OCCN2S(=O)(=O)c2ccc3c(c2)OCCO3)cc1OC (stereo not drawn),active: 11.7 µM,–
CCCCNc1ncnc2c1cnn2Cc1ccc(Cl)cc1,"inconclusive: 1.47 µM [inhibitor, partial curve]",–
O=C(NC1=NCCS1)C1CC2CCC1C2 (stereo not drawn),–,inactive: 84.8%
O=C(CN1CCN(S(=O)(=O)c2ccc(F)cc2)CC1)Nc1ccc(Cl)cn1,"inconclusive: 18.5 µM [inhibitor, single point]",–
NC(=O)CSc1cn(Cc2ccc(F)cc2)c2ccccc12,"inconclusive: 6.57 µM [inhibitor, partial curve, poor fit]",–
Cc1cc(NC(=O)Cn2nnc(-c3ccccc3NC(=O)c3ccccc3F)n2)no1,"inconclusive: 1.65 µM [inhibitor, partial curve]",–
O=C1CCC(C(=O)N(CCO)Cc2ccccc2)CN1CCCN1CCOCC1 (stereo not drawn),"inconclusive: 18.5 µM [inhibitor, single point]",–
NC(=O)c1cccc(-c2cccc(OC(=O)NC3CCCCC3)c2)c1,"inconclusive: 10.4 µM [inhibitor, single point]",–
CCn1nnc(NC(=O)c2ccc(Br)o2)n1,–,inactive: -2.82%
CCOc1ccc2ncc(C(=O)c3ccc(OC)cc3)c(N3CCN(CC)CC3)c2c1,–,inactive: 37.7%
CC1/C(=N/O)CC(c2ccccc2)NC1c1ccccc1 (stereo not drawn),"inconclusive: 10.4 µM [inhibitor, single point]",–
COc1ccc(N(C)S(=O)(=O)c2cccc(C(=O)Nc3ccc(-n4cnnn4)cc3)c2)cc1,"inconclusive: 18.5 µM [inhibitor, partial curve, poor fit]",–
Cn1c(=O)c(C(=O)NC2CCCCCC2)c(O)c2ccccc21,"inconclusive: 18.5 µM [inhibitor, single point]",–
CCC(C)(C)C1CCC2(CC1)NC(CO)(CO)CO2 (stereo not drawn),"inconclusive: 18.5 µM [inhibitor, single point]",–
c1ccc(C2=Nc3ccccc3OC2)cc1,"inconclusive: 18.5 µM [inhibitor, single point]",–

Structure (SMILES),Potency,"activity change, negative = inhibition"
O=C(NCCc1ccc(F)cc1)C(=O)NCC1CCCN1S(=O)(=O)c1ccccc1 (stereo not drawn),"inconclusive: 18.5 µM [inhibitor, single point]",–
Nc1nc(CN2CCN(c3ccccc3F)CC2)nc(Nc2ccccc2)n1,"inconclusive: 18.5 µM [inhibitor, single point]",–
O=C(O)CCc1nc(-c2cccs2)no1,"inconclusive: 11.7 µM [inhibitor, partial curve]",–
CC(=O)NC12CC3CC(C1)CC(C(=O)N1CCN(S(=O)(=O)c4ccc(C(C)C)cc4)CC1)(C3)C2,active: 11.7 µM,–
COc1cccc(CC(=O)Nc2nc(-c3cccnc3)cs2)c1,"inconclusive: 18.5 µM [inhibitor, single point]",–
COCc1cc(C)nc(NC2CCCCC2)c1C#N,–,inactive: -26.9%
O=C(c1ccccc1[N+](=O)[O-])N1CC2C3C=CC(C3)C2C1 (stereo not drawn),"inconclusive: 18.5 µM [inhibitor, single point]",–
Cc1ccc(C(=O)COc2ccc3ccc(=O)oc3c2)cc1,–,inactive: 11%
Cc1ccc(S(=O)(=O)N(C)CCCC(=O)n2nc(C)cc2C)cc1,–,inactive: -8.34%
COC(=O)c1ccccc1NC(=O)n1cc(C)cn1,–,inactive: -7.61%
CC(C)N1CCN(Cc2ccc(OCc3ccccc3)cc2)CC1CCO (stereo not drawn),"inconclusive: 18.5 µM [inhibitor, single point]",–
Cc1sc2nc(C3CC3)nc(SCC(=O)N3CC(=O)Nc4ccccc43)c2c1C,"inconclusive: 18.5 µM [inhibitor, single point]",–
Cc1[nH]c(=O)c(C#N)cc1-c1ccc2nccn2c1,–,inactive: -2.23%
CCOc1cc(NC(=O)c2cnccn2)c(OCC)cc1NC(=O)c1ccc(OC)cc1,"inconclusive: 10.4 µM [inhibitor, single point]",–
Cc1nc2ccc(NC(=S)NC(C)C)cc2nc1C,"inconclusive: 18.5 µM [inhibitor, single point]",–
CN(C(=O)c1ccc2c(c1)C(=O)N(CCC1=CCCCC1)C2=O)C1CCCCC1,active: 10.4 µM,–
O=C(NCCCOc1cccc(CN2CCCCC2)c1)c1ccc(Cl)c(Cl)c1,active: 2.33 µM,–
Cc1cccc(NC(=S)NCCc2ccccc2)n1,"inconclusive: 0.37 µM [inhibitor, full curve]",–
CN(c1ccccc1)S(=O)(=O)c1cccc(C(=O)Nc2ccc(N3CCOCC3)cc2)c1,"inconclusive: 13.1 µM [inhibitor, partial curve, poor fit]",–
CC(Sc1nc(-c2ccccc2)cc(C(F)(F)F)n1)C(=O)N1CCOCC1 (stereo not drawn),active: 1.65 µM,–
O=S(=O)(c1ccc(Cl)cc1)N1CCN(S(=O)(=O)N2CCCCCC2)CC1,"inconclusive: 5.22 µM [inhibitor, partial curve, poor fit]",–
COc1ccc(C(=O)Nn2c(C)ccc2C)cc1OC,–,inactive: -0.937%
CCOc1ccc(CCNC(=O)COC(=O)Cn2nc(C)c([N+](=O)[O-])c2C)cc1OCC,–,inactive: -1.43%
CC(NC(=O)CSc1nc(C2CC2)n(-c2ccccc2)n1)c1ccco1 (stereo not drawn),"inconclusive: 10.4 µM [inhibitor, single point]",–
CC12CN3CCN(C1)CC(C)(C3)C2=NN,"inconclusive: 18.5 µM [inhibitor, single point]",–

# Compounds listed so far containing an aryl methoxy group:
Structure (SMILES),Potency,"activity change, negative = inhibition"
CCn1c(=NC(=O)c2ccc(S(=O)(=O)N3CCOCC3)cc2)sc2cccc(OC)c21,"inconclusive: 8.28 µM [inhibitor, partial curve]",–
COc1ccc(S(=O)(=O)N2CCN(c3ccccc3OC)CC2)cc1,"inconclusive: 18.5 µM [inhibitor, single point]",–
COc1ccc(OC)c(NC(=O)CCOc2cccc(C)c2)c1,–,inactive: 1.09%
COc1ccc(CCNC(=O)C(=O)NCC2OCCN2S(=O)(=O)c2ccc3c(c2)OCCO3)cc1OC (stereo not drawn),active: 11.7 µM,–
CCOc1ccc2ncc(C(=O)c3ccc(OC)cc3)c(N3CCN(CC)CC3)c2c1,–,inactive: 37.7%
COc1ccc(N(C)S(=O)(=O)c2cccc(C(=O)Nc3ccc(-n4cnnn4)cc3)c2)cc1,"inconclusive: 18.5 µM [inhibitor, partial curve, poor fit]",–
COc1cccc(CC(=O)Nc2nc(-c3cccnc3)cs2)c1,"inconclusive: 18.5 µM [inhibitor, single point]",–
CCOc1cc(NC(=O)c2cnccn2)c(OCC)cc1NC(=O)c1ccc(OC)cc1,"inconclusive: 10.4 µM [inhibitor, single point]",–
COc1ccc(C(=O)Nn2c(C)ccc2C)cc1OC,–,inactive: -0.937%

# The list goes on.

Structure (SMILES),Potency,"activity change, negative = inhibition"
COc1ccc(/C(O)=C/C(=O)C(=O)NNC(=O)C(O)(c2ccccc2)c2ccccc2)cc1,"inconclusive: 0.037 µM [inhibitor, full curve, poor fit]",–
CCc1ccc(N(C(=O)c2csnn2)C(C(=O)NC(C)(C)C)c2ccncc2)cc1 (stereo not drawn),"inconclusive: 2.62 µM [inhibitor, full curve]",–
O=c1c2ccccc2nc2n1CCCS2,–,inactive: -2.03%
COc1ccccc1Nc1nc2nonc2nc1N1CCC(C)CC1,"inconclusive: 11.7 µM [inhibitor, single point]",–
Cc1ccc(S(=O)(=O)/N=C(\Sc2ccccc2)c2ccccc2)cc1,–,inactive: 22%
Cc1cc(C(=O)N2CCc3ccccc32)c2cc(F)ccc2n1,–,inactive: -16.3%
N#CCCN(C(=S)NC(=O)c1ccco1)c1ccccc1F,–,inactive: 21.5%
O=C1CSC(=NC2CCCCC2)N1,"inconclusive: 13.1 µM [inhibitor, partial curve]",–
Cc1ccc(SCc2nc3ccccc3n2CC(=O)Nc2c(C)cccc2C)cc1,"inconclusive: 0.0928 µM [inhibitor, full curve, poor fit]",–
CC(C)(C)c1ccc(CNc2ccc([N+](=O)[O-])cn2)cc1,"inconclusive: 14.7 µM [inhibitor, single point]",–
CCN1C(=O)C(CC(=O)Nc2ccc(OC)cc2)N(Cc2ccc(OC)c(OC)c2)C1=S (stereo not drawn),"inconclusive: 13.1 µM [inhibitor, single point]",–
Cc1cc2cc3c(cc2nc1SCC(=O)N1c2ccccc2CC1C)OCO3 (stereo not drawn),"inconclusive: 18.5 µM [inhibitor, single point]",–
CCc1ccc(C2=C/C(=C/c3cccnc3)C(=O)O2)cc1,–,inactive: -58.5%
CCCCC(=O)Nc1nc2ccc(C(=O)OC)cc2s1,–,inactive: 383%
S=C(Nc1cccc2ccccc12)NN1CCOCC1,"inconclusive: 10.4 µM [inhibitor, single point]",–
N#CCSC1=Nc2ccccc2C2=NC(CCC(=O)N3CCN(c4ccccc4)CC3)C(=O)N12 (stereo not drawn),"inconclusive: 4.15 µM [inhibitor, partial curve]",–
COc1cc(C(=O)Nc2ccncc2)c([N+](=O)[O-])cc1OC,"inconclusive: 4.15 µM [inhibitor, partial curve, poor fit]",–
CN1/C(=C\C(=O)c2cncc(Br)c2)C(C)(C)c2ccccc21,"inconclusive: 10.4 µM [inhibitor, single point]",–
Cc1noc(/C=C/c2ccco2)c1S(=O)(=O)N1CCC(C(=O)N(C)Cc2ccccc2)CC1,–,inactive: 7.94%
O=C1C=CN(Cc2ccccc2)CC1,–,inactive: 55.1%
Cc1nc2sccn2c1P(c1c(C)nc2sccn12)c1c(C)nc2sccn12,"inconclusive: 11.7 µM [inhibitor, single point]",–
Cc1cccc2cc(C3CC(c4ccco4)=NN3S(=O)(=O)c3ccccc3)c(Cl)nc12 (stereo not drawn),"inconclusive: 11.7 µM [inhibitor, single point]",–
CC(C)Cc1cc(CN2CCC(CO)(Cc3ccccc3)CC2)[nH]n1,"inconclusive: 2.08 µM [inhibitor, full curve, poor fit]",–

# Entries of single compounds, quoted from the list.
# Cc1nc2sccn2c1P(c1c(C)nc2sccn12)c1c(C)nc2sccn12 is listed with Potency: inconclusive: 11.7 µM [inhibitor, single point]
# S=C(Nc1cccc2ccccc12)NN1CCOCC1 is listed with Potency: inconclusive: 10.4 µM [inhibitor, single point]
